These are yes or no findings as the source states them, for the method shown. In cells and extracts the contact can be indirect. These calls come from enrichment with a bait or labelling near it, and not all partners need be listed.
Target: glutathione S-transferase (GST) fused with the SH2 domain of WT 3BP2
Assay: affinity purification with mass spectrometry; lysate of curdlan-stimulated BMDCs divided equally; pull-down with GST-3BP2-SH2-WT or -RK on GSH beads; co-precipitated proteins digested with trypsin and analysed by DIA-MS; only the target purified

- binding: binds
B1: hematopoietic cell-specific Lyn substrate 1 (protein, UniProt P49710 1-486)
chain: MWKSVVGHDVSVSVETQGDDWDTDPDFVNDISEKEQRWGAKTIEGSGRTEHINIHQLRNKVSEEHDILKKKELESGPKASHGYGGRFGVERDRMDKSAVGHEYVADVEKHSSQTDAARGFGGKYGVERDRADKSAVGFDYKGEVEKHASQKDYSHGFGGRYGVEKDKRDKAALGYDYKGETEKHESQRDYAKGFGGQYGIQKDRVDKSAVGFNEMEAPTTAYKKTTPIEAASSGARGLKAKFESLAEEKRKREEEEKAQQMARQQQERKAVVKMSREVQQPSMPVEEPAAPAQLPKKISSEVWPPAESHLPPESQPVRSRREYPVPSLPTRQSPLQNHLEDNEEPPALPPRTPEGLQVVEEPVYEAAPELEPEPEPDYEPEPETEPDYEDVGELDRQDEDAEGDYEDVLEPEDTPSLSYQAGPSAGAGGAGISAIALYDYQGEGSDELSFDPDDIITDIEMVDEGWWRGQCRGHFGLFPANYVKLL
